For at least one entry, the source does not settle the construct or the ends of the probe. At least one result comes from cells or an extract, where the contact may be indirect. For part of these data: A weaker result is weaker than the reference pair of the same experiment.
Experiments:
[1] = target: Sp1 (nuclear extract) (Homo sapiens) (UniProt P08047); test: competition with a labelled probe; settings: 100-fold excess against Sp1-1, ARS and Sp1-3 probes; EMSA: 10 ug nuclear extract or 120 nM Sp1, 20 fmol biotin probe; binding buffer per earlier paper (not given); 6% native PAGE, 0.5x TBE pH 8.3; protein in an extract; label: unlabelled
[2] = target: Sp1 (nuclear extract) (Homo sapiens) (UniProt P08047); test: EMSA, complex diminished by anti-Sp1; settings: apparent lower affinity than Sp1-1; EMSA: 10 ug nuclear extract or 120 nM Sp1, 20 fmol biotin probe; binding buffer per earlier paper (not given); 6% native PAGE, 0.5x TBE pH 8.3; protein in an extract; label: 3' biotin
[3] = target: hnRNP-K (nuclear extract) (Homo sapiens) (UniProt P61978); test: EMSA, complex impeded by anti-hnRNP-K; settings: EMSA: 10 ug nuclear extract or 120 nM Sp1, 20 fmol biotin probe; binding buffer per earlier paper (not given); 6% native PAGE, 0.5x TBE pH 8.3; protein in an extract; label: 3' biotin; single-stranded DNA
[4] = target: Sp1 (nuclear extract) (Homo sapiens) (UniProt P08047); test: EMSA supershift; settings: EMSA: 10 ug nuclear extract or 120 nM Sp1, 20 fmol biotin probe; binding buffer per earlier paper (not given); 6% native PAGE, 0.5x TBE pH 8.3; protein in an extract; label: 3' biotin

Sequence | binding result [2] | binding result [3] | also measured
ATTCGATCGGGGCGGGGCGAGC (double strand) [Sp1 cons] | – | – | binding result [1]: binds
TCTCCACCCCGCCTCCCCCCACCCTGCCTT (double strand) [ARS] | binds more weakly | – | –
TTCTCCCCACCCGCCCCCCCGCCCCCGTCG [Sp1-3 forward strand (C-rich)] | – | binds | –
TTCTCCCCACCCGCCCCCCCGCCCCCGTCG (double strand) [Sp1-3] | binds more weakly | – | –
TCTCCACCCCGCCTCCCCCCACCCTGCCTT [ARS forward strand (C-rich)] | – | binds | –
CGGCCCGGTGGGGGCGGGACCCGACTCGCA (double strand) [Sp1-1] | – | – | binding result [4]: binds

— publication PMC4598089
